PubChem BioAssay AID1259425 | University of Nebraska Medical Center, 2018

- Aim: 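Compare each knockdown with KSR1 silencing using changes in marker transcripts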 (primary screen)
- System: HCT116 human colon cancer cells
- Reagents: siRNA pool against human genes, 50 nM siRNA
- Measurement: 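After 50 nM siRNA pool, branched-DNA assay measures six marker transcripts per well, minus blank, normalised to the geometric mean of two housekeeping transcripts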
- Direction: BNIP3L mRNA: higher = more BNIP3L transcript after knockdown; NDRG1 mRNA: higher = more NDRG1 transcript after knockdown; BNIP3 mRNA: higher = more BNIP3 transcript after knockdown
The deposit covers about 14,000 reagents; this is a part drawn at random. Not all columns of the deposit are shown. Not given: the time to read-out.

gene | BNIP3L mRNA, set 1 | NDRG1 mRNA, set 1 | BNIP3 mRNA, set 1
ITPRID2 | 0.14 | 2.6 | 0.726
RLN1 | 0.062 | 0.0784 | 0.229
NENF | 0.0523 | 1.49 | 0.353
DNAH7 | 0.102 | 0.332 | 0.291
CCP110 | 0.0626 | 0.194 | 0.284
MCL1 | 0.104 | 0.246 | 0.286
QNG1 | 0.144 | 0.206 | 0.229
TDP1 | 0.0936 | 0.219 | 0.261
GJB2 | 0.0743 | 0.597 | 0.223
ERCC6L2 | 0.114 | 0.108 | 0.292
STX11 | 0.103 | 0.131 | 0.317
HBP1 | 0.0467 | 0.215 | 0.356
CCDC106 | 0.0294 | 0.165 | 0.308
MTUS1 | 0.0733 | 0.251 | 0.361
SCGB1D2 | 0.0768 | 0.345 | 0.215
DNAJB9 | 0.0981 | 0.152 | 0.219
C8A | 0.14 | 0.171 | 0.427
ZNF35 | 0.11 | 0.0791 | 0.389
NCBP2 | 0.167 | 0.203 | 0.148
CFAP20 | 0.0921 | 0.101 | 0.152
LIAS | 0.0803 | 0.354 | 0.261
FLRT1 | 0.0804 | 0.307 | 0.342
ADAM20 | 0.0279 | 0.0789 | 0.263
OSTM1 | 0.113 | 0.754 | 0.327
HDLBP | 0.158 | 0.148 | 0.36
LYPLA2 | 0.0956 | 0.308 | 0.165
NRBF2 | 0.0688 | 0.222 | 0.291
MRGBP | 0.0578 | 0.157 | 0.427
MOK | 0.0637 | 0.188 | 0.314
HPS5 | 0.0584 | 0.135 | 0.264
DMRTC1 | 0.129 | 0.421 | 0.325
EIF3B | 0.222 | 0.201 | 0.338
BTBD1 | 0.052 | 0.0782 | 0.204
TBX22 | 0.0941 | 0.0523 | 0.23
PAFAH1B1 | 0.298 | 0.157 | 0.786
CRACR2A | 0.0819 | 0.428 | 0.308
USP10 | 0.0445 | 0.138 | 0.249
MYCN | 0.0978 | 0.169 | 0.246
CSN2 | 0.244 | 0.327 | 0.572
MPP2 | 0.0778 | 0.183 | 0.314
SYCP3 | 0.448 | 0.691 | 0.473
LTV1 | 0.0784 | 0.185 | 0.274
TMC1 | 0.0928 | 0.185 | 0.267
LAS1L | 0.204 | 0.494 | 0.327
SCN7A | 0.0855 | 0.36 | 0.314
SLN | 0.0759 | 0.201 | 0.355
TOR1AIP1 | 0.16 | 0.151 | 0.405
COL13A1 | 0.103 | 0.111 | 0.378
CAMK2A | 0.106 | 0.136 | 0.436
MXRA5 | 0.283 | 0.0806 | 0.432
